Test results published in patent US10307403B2, “Polymorphic forms and process” (GALECTO BIOTECH AB, priority 2015, dated 2019).
Some results were stated once for a whole list of compounds, not compound by compound.

Assay: Aerodynamic particle size determination (APSD) via New Generation Impactor (NGI)
Type: physicochemical
Conditions: 20 mg in size 3 HPMC capsule, Plastiape Monodose inhaler
Procedure: To compare in vitro performance of the different forms for use in inhalation products, an aerodynamic particle size determination (APSD) was performed via New Generation Impactor (NGI) for Form 5 material produced via microfluidization and the amorphous form produced via spray drying. These were compared with the APSD obtained from micronized Form 1 material. For each APSD test, 20 mg 3,3′-Dideoxy-3,3′-bis-[4-(3-fluorophenyl)-1H-1,2,3-triazol-1-yl]-1,1′-sulfanediyl-di-β-D-galactopyranoside was filled into a size 3 HPMC capsule and actuated using a Plastiape Monodose inhaler device.

| SMILES | Fine Particle Fraction (FPF) |
| --- | --- |
| OCC1O[C@@H](SC2O[C@H](CO)C(O)C(n3cc(-c4cccc(F)c4)nn3)[C@H]2O)C(O)C(n2cc(-c3cccc(F)c3)nn2)[C@H]1O (stereo partly drawn) [Amorphous, 3,3′-Dideoxy-3,3′-bis-[4-(3-fluorophenyl)-1H-1,2,3-triazol-1-yl]-1,1′-sulfanediyl-di-β-D-galactopyranoside] | above 60% |
| OC[C@H]1O[C@@H](S[C@@H]2O[C@H](CO)[C@H](O)[C@H](n3cc(-c4cccc(F)c4)nn3)[C@H]2O)[C@H](O)[C@@H](n2cc(-c3cccc(F)c3)nn2)[C@H]1O [Form 1, 3,3′-Dideoxy-3,3′-bis-[4-(3-fluorophenyl)-1H-1,2,3-triazol-1-yl]-1,1′-sulfanediyl-di-β-D-galactopyranoside] | above 60% |
| OCC1O[C@@H](SC2O[C@H](CO)C(O)C(n3cc(-c4cccc(F)c4)nn3)[C@H]2O)C(O)C(n2cc(-c3cccc(F)c3)nn2)[C@H]1O (stereo partly drawn) [Form 5, 3,3′-Dideoxy-3,3′-bis-[4-(3-fluorophenyl)-1H-1,2,3-triazol-1-yl]-1,1′-sulfanediyl-di-β-D-galactopyranoside] | above 60% |
